# PMC12040169 (PLOS Biology, 2025)
# The list shows a part of the results.
# Test system: T1, CTL2-GFP (C. trachomatis L2/434/Bu, GFP-expressing)
# T1 construct: L2/434/Bu, GFP-expressing
# Set-up: species or system HeLa; Intracellular C. trachomatis growth in HeLa cells, bulk GFP fluorescence relative to DMSO
# Details: bulk GFP, single well; 28.5 h, 10 µM; inhibitor
row,SMILES,% of control remaining [%]
1,NCCc1nc(-c2ccccc2)c2cnccn12 [CBK035705],125.999
2,O=C(Nc1ccc(S(=O)(=O)NCc2ccccc2)cc1)Nc1ccc2c(c1)OCO2 [CBK268186],113.831
3,COc1ccc(C2C(C(=O)Nc3ccccc3)=C(C)Nc3ncnn32)cc1 (stereo not shown) [CBK287353],108.805
4,CCN(C(C)COC)S(=O)(=O)c1cccc(Cl)c1Cl (stereo not shown) [CBK305146],108.909
5,Cc1cc(C)n2c(SCC(C)(C)NS(=O)(=O)c3ccccc3)nnc2n1 [CBK268369],109.288
6,Cc1noc(C)c1CC(=O)Nc1cccc(CN2CCCCCC2)c1 [CBK281407],80.1329
7,COc1ccccc1CCNC(=O)c1cnccn1 [CBK268147],100.998
8,COc1cccc(NC(=O)c2ccc(NC(=O)CCCC(=O)O)cc2)c1 [CBK287137],109.464
9,CCCn1cnc2cc(NC(=O)Cn3cc(C(=O)NC4CCCCC4)ccc3=O)ccc21 [CBK286098],106.908
10,CCc1nnc(N/N=C/c2ccc(OCc3ccc(F)cc3Cl)c(OC)c2)n1N [CBK278173C],103.882
11,Cc1cc(-c2ccc(=O)n(CCNC(=O)C3CCCCC3)n2)c(C)o1 [CBK284522],123.735
12,O=C(O)CCNc1ccc(Br)cc1C(=O)O [CBK087259],112.947
13,COc1ccc([N+](=O)[O-])c(N2CCOC3(CCN(C(=O)OCc4ccccc4)CC3)C2)n1 [CBK161117T],90.6493
14,CC(=O)Nc1ccc(S(=O)(=O)N2CCN(CCO)CC2)cc1 [CBK262196],100
15,O=C(O)CC1C(=O)NCCN1Cc1cccc(C(F)(F)F)c1 (stereo not shown) [CBK269958],144.116
16,CC(C)(O)c1cc(CC2(NCc3ccc(Cl)cc3)COC2)no1 [CBK289254],145.653
17,CC(C)NC(=O)c1sc2ccccc2c1C1CN(Cc2ccc3ncccc3c2)CCO1 (stereo not shown) [CBK285930],91.6777
18,O=C(O)C[C@@H]1CCN(C(=O)c2ccc3c(c2)OCO3)C[C@@H]1CC1=NCCc2ccccc21 [CBK289160],107.062
19,Cc1nc(NC(=O)c2ccoc2)sc1C [CBK296729],147.256
20,O=C(O)c1ccc(CNCCc2c[nH]c3ccccc23)cc1 [CBK287265],118.981
21,CCCCC1CCC(c2noc(-c3ccc(F)cc3)n2)CC1 (stereo not shown) [CBK027363],101.839
22,O=C1Nc2ccc(/C=C/c3ccccc3)cc2C(=O)N2CC[C@H](NC(=O)N3CCOCC3)[C@@H]12 [CBK289344],114.596
23,CC(C)(C)c1cc(N)c(C(N)=O)s1 [CBK016752],96.1645
24,Cc1csc(C(Cc2ccsc2)NC(=O)C2CCOCC2)n1 (stereo not shown) [CBK285047],139.454
25,COc1cc2c(cc1OC)C1(CCN(CCc3c[nH]c4ccccc34)CC1)NC(=O)C2 [CBK039992],180.344
26,Fc1ccc(Br)cc1SCCc1ccccn1 [CBK262330G],111.287
27,COc1ccc(CN2C(=O)CS(=O)(=O)CC2=O)cc1OC [CBK011127],98.6759

row,SMILES,% of control remaining [%]
1,Clc1cncc(NCCc2c[nH]c3ccccc23)n1 [CBK093514],91.0223
2,Cn1c(=O)c2c(ncn2CC(=O)Nc2cccc(Br)c2)n(C)c1=O [CBK133287],103.243
3,CS(=O)(=O)N(Cc1ccc(Cl)cc1)c1ccc(C(=O)Nc2ccccc2C(=O)O)cc1 [CBK264093],106.771
4,COc1ccc(-c2nccnc2NCCCN(C)C)cc1 [CBK037671],86.1064
5,Fc1cccc(Nc2nc(C3CCNCC3)c3ccccn23)c1 [CBK281522],131.273
6,O=C(NNc1nc(-c2ccccc2)cc(-c2ccccc2)n1)Nc1ccccc1 [CBK262223],121.834
7,CSCC[C@H](NC(=O)c1cccc2c1-c1ccccc1C2=O)C(=O)O [CBK286781],119.896
8,Cc1cc(S(=O)(=O)NCc2ccccc2-n2ccnc2)ccc1F [CBK281477],98.0704
9,Fc1ccc2[nH]c3c(c2c1)CCNC31CCN(CCOc2ccccc2)C1 (stereo not shown) [CBK085404T],94.9516
10,Cc1ccc(NC(=O)CSc2nc3ccccc3c(=O)n2Cc2ccco2)cc1Cl [CBK265606],91.795
11,Cc1ccc(C(C)C)c(OCc2ccc(C(=O)Nc3ccc(S(N)(=O)=O)cc3C)o2)c1 [CBK265833],91.1423
12,CCC(Sc1ccc2nnc(-c3ccc(C)cc3)n2n1)C(=O)O (stereo not shown) [CBK287524],150.21
13,Nc1ncnc(NCCCc2ccccc2)c1[N+](=O)[O-] [CBK267261],136.465
14,O=[N+]([O-])c1ccc(OCCO)cc1 [CBK000628],138.072
15,CNC(=O)c1ccc(-c2ccccc2OC)nc1N1CCOCC1 [CBK106210],100
16,CC1CN(C(=O)NC(=O)c2ccc(-c3csnn3)cc2)CC(C)O1 (stereo not shown) [CBK017091],145.034
17,CCOC(=O)c1cnc2nc(N3CCOCC3)nn2c1N [CBK007371],100.938
18,Cc1ccc2nc(-c3ccc(/N=C/c4ccc(/C=N/c5ccc(-c6nc7ccc(C)cc7s6)cc5)cc4)cc3)sc2c1 [CBK261661],117.884
19,CCCC/C=C/c1cnc2[nH]c(=O)n(Cc3ccc(S(N)(=O)=O)cc3)c2n1 [CBK064956],65.4199
20,O=C(c1ccccn1)N1C2CCC1CC(O)(c1ccco1)C2 (stereo not shown) [CBK284034],130.035
21,Cc1cc(OCC(C)C)ccc1C(=O)C1=C(O)C(=O)N(Cc2cccnc2)C1c1cccnc1 (stereo not shown) [CBK264883],120.82
22,COc1ccc(NC(=O)CC2NC(=O)NC2=O)cc1 (stereo not shown) [CBK267279],115.359
23,N#CCCN(Cc1ccco1)C(=O)c1cccc(NC(=O)C2CC2)c1 [CBK304014],110.582
24,CC(C)(C)c1ccccc1NC(=O)N(CCN)Cc1cc(F)cc(F)c1 [CBK046263C],119.62
25,Cc1ccc(S(=O)(=O)Nc2nnc(C(C)C)s2)cc1 [CBK045528],107.991
26,CN1CCC(COC(=O)Nc2cccnc2)CC1 [CBK138232],88.1976
27,COC(=O)[C@H]1CN(C(=O)c2cn(C)nc2C)C[C@@H]1c1ccccc1F [CBK283511],125.477

# Exported bar-delimited: part of the list above.
row | SMILES | % of control remaining [%]
1 | Clc1cncc(NCCc2c[nH]c3ccccc23)n1 [CBK093514] | 91.0223
10 | Cc1ccc(NC(=O)CSc2nc3ccccc3c(=O)n2Cc2ccco2)cc1Cl [CBK265606] | 91.795
24 | CC(C)(C)c1ccccc1NC(=O)N(CCN)Cc1cc(F)cc(F)c1 [CBK046263C] | 119.62
27 | COC(=O)[C@H]1CN(C(=O)c2cn(C)nc2C)C[C@@H]1c1ccccc1F [CBK283511] | 125.477

# Next part.

row,SMILES,% of control remaining [%]
1,CC[C@H](Cn1c(=O)oc2ccccc21)NC(=O)Cc1cccs1 [CBK284537],144.694
2,CN(CC(=O)Nc1cc2ccccc2c(N2CCNCC2)n1)C(=O)c1ccccc1 [CBK028421T],123.571
3,Cn1cc(-c2nccnc2OC2CCCCC2)cn1 [CBK107072],166.844
4,COc1ccc(CC(=O)N2CCN(C(C)c3nc4ccccc4s3)CC2)cc1F (stereo not shown) [CBK297733],133.526
5,COC(=O)c1ccc(N2CCN(C)CC2)c([N+](=O)[O-])c1 [CBK264341],122.151
6,CN(C)c1ccc(-c2ccnc3nc(N)ccc23)cc1 [CBK067640],131.419
7,Cc1c(C(=O)N(C)Cc2cccn2C)[nH]c2ccccc12 [CBK283270],104.504
8,COc1ccc(C(=O)C2=C(O)C(=O)N(Cc3cccnc3)C2c2ccc(OC)cc2OC)c(C)c1 (stereo not shown) [CBK264928],123.234
9,Cc1sc2[nH]c(CCC(=O)N3CCCC(C)CC3)nc(=O)c2c1C (stereo not shown) [CBK305807],123.357
10,CSc1nsc(SCC(=O)c2ccc3c(c2)OCCO3)n1 [CBK268904],104.677
11,CCOC(=O)C1CCN(C(=O)c2cccnc2NCc2ccc3c(c2)OCO3)CC1 [CBK160106],63.6467
12,COc1ccc2[nH]cc(CCNC(=O)[C@H](CC(C)C)NC(C)=O)c2c1 [CBK116210],116.345
13,O=C(N[C@@H](Cn1cc(F)c(=O)[nH]c1=O)C(=O)O)C1CCCCC1 [CBK289661],106.381
14,CC(=O)Nc1ccccc1/C=C/c1ccc2c(C)cc(C)c(O)c2n1 [CBK261937],84.2645
15,Cc1cc2occ(CC(=O)NCc3ccccn3)c2c(C)c1Cl [CBK269175],128.606
16,O=C(O)CCC(=O)N1CCCC2(CCN(Cc3ccccc3)C2)C1 (stereo not shown) [CBK136890],106.31
17,O=C(COc1ccc(I)cc1)Nc1cccnc1 [CBK263430],115.606
18,CCc1nc2ccc(C(=O)N3CCN(c4ccccc4)CC3)cn2c1N(C)Cc1ccc(OC)cc1 [CBK145584],109.577
19,O=C(O)c1cccc(NC(=O)c2cccc(S(=O)(=O)N3CCc4ccccc4C3)c2)c1 [CBK265187],119.116
20,Cc1noc(NS(=O)(=O)c2ccc(NC(=O)/C=C/c3ccc(C(C)C)cc3)cc2)c1C [CBK265430],19.2265
21,Cc1cc(C)n(CCNC(=O)c2ncoc2-c2ccc(F)cc2)n1 [CBK282356],117.239
22,Cc1ccc(C(=O)N2CN(C(=O)CN3CCOCC3)CC(C)(C)C2)cc1 [CBK039190],149.873
23,O=[N+]([O-])c1ccc(S(=O)(=O)NCCSCc2cccc(Cl)c2)cc1 [CBK268066],95.6921
24,CC(C)c1nsc(NS(=O)(=O)Cc2ccccc2)n1 [CBK051188],101.716
25,COc1ccc(-c2c[nH]c([C@@H]3COCCN3Cc3cccc(C#N)c3)n2)cc1 [CBK289298],134.985
